Measured values: publication PMC8946000
No constants are given. Whether binding was seen depends on the method and setting. In cells and extracts the contact can be indirect. Some results given as binding are weak or reduced against the parent protein; the word gives no strength.

Sequences of proteins named here, by UniProt entry; tags and fusion partners are left off. A change or cut given only in a name is not applied to a line headed by its entry. A line that says so, or that is headed by a name, gives the form on record, which may keep a tag or linker. Residues count along the entry.
UniProt Q8NFJ6: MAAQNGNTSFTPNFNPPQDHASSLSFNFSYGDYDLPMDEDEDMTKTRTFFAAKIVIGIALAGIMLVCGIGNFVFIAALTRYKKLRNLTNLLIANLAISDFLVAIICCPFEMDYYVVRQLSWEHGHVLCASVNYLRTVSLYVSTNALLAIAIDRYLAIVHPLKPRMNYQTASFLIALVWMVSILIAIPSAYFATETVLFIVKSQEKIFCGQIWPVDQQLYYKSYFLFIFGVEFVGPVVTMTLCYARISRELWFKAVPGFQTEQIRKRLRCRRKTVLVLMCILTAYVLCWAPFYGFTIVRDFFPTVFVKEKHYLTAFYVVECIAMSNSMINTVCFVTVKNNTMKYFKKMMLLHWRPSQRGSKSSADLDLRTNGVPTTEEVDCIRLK
GST fusion protein PKR2-NT (the 69 amino acids of the amino terminus of PKR2 fused with GST): residues 1-69 of Q8NFJ6

Assays:
[1] = target: Prokineticin receptor 2 (PKR2), His-tagged, expressed in S. cerevisiae from pYESC3-PKR2 (UniProt Q8NFJ6); assay: pull-down; solubilized yeast membrane fractions co-expressing His-tagged PKR2 or ΔN-PKR2 with MRAP2, co-precipitated on Ni-NTA His-bind resin under native conditions; blots with anti-His and anti-MRAP2
[2] = target: Prokineticin receptor 2 (PKR2), His-tagged, expressed in S. cerevisiae from pYESC3-PKR2 (UniProt Q8NFJ6); assay: cross-linking; membrane fraction (20 μg of protein) of yeast co-expressing PKR2 or ΔN-PKR2 with MRAP2, 1 mM BS3 in 25 mM MOPS pH 7.5, 30 min at room temperature; SDS-PAGE, blot with anti-MRAP2
[3] = target: GST fusion protein PKR2-NT (the 69 amino acids of the amino terminus of PKR2 fused with GST) (UniProt Q8NFJ6); assay: pull-down; R2-GST (PKR2-NT) or GST on glutathione-Sepharose beads, buffer A (PBS, 1% Nonidet P 40, 1 mM EDTA), incubated overnight at 4 °C with total membrane extract of yeast expressing MRAP2; eluted with GSH; Western blot; only the target purified

binding [1]: binds
binding [2]: binds
binding [3]: binds
B1: Melanocortin Receptor Accessory Protein 2 (MRAP2), expressed in S. cerevisiae from p413 MRAP2 (protein, UniProt Q96G30 1-205)
chain: MSAQRLISNRTSQQSASNSDYTWEYEYYEIGPVSFEGLKAHKYSIVIGFWVGLAVFVIFMFFVLTLLTKTGAPHQDNAESSEKRFRMNSFVSDFGRPLEPDKVFSRQGNEESRSLFHCYINEVERLDRAKACHQTTALDSDVQLQEAIRSSGQPEEELNRLMKFDIPNFVNTDQNYFGEDDLLISEPPIVLETKPLSQTSHKDLD
